# Experimental data as given in paper PMC11252262.
# The chains behind the UniProt entries cited, without tags or fusion partners.
# UniProt E9Q555: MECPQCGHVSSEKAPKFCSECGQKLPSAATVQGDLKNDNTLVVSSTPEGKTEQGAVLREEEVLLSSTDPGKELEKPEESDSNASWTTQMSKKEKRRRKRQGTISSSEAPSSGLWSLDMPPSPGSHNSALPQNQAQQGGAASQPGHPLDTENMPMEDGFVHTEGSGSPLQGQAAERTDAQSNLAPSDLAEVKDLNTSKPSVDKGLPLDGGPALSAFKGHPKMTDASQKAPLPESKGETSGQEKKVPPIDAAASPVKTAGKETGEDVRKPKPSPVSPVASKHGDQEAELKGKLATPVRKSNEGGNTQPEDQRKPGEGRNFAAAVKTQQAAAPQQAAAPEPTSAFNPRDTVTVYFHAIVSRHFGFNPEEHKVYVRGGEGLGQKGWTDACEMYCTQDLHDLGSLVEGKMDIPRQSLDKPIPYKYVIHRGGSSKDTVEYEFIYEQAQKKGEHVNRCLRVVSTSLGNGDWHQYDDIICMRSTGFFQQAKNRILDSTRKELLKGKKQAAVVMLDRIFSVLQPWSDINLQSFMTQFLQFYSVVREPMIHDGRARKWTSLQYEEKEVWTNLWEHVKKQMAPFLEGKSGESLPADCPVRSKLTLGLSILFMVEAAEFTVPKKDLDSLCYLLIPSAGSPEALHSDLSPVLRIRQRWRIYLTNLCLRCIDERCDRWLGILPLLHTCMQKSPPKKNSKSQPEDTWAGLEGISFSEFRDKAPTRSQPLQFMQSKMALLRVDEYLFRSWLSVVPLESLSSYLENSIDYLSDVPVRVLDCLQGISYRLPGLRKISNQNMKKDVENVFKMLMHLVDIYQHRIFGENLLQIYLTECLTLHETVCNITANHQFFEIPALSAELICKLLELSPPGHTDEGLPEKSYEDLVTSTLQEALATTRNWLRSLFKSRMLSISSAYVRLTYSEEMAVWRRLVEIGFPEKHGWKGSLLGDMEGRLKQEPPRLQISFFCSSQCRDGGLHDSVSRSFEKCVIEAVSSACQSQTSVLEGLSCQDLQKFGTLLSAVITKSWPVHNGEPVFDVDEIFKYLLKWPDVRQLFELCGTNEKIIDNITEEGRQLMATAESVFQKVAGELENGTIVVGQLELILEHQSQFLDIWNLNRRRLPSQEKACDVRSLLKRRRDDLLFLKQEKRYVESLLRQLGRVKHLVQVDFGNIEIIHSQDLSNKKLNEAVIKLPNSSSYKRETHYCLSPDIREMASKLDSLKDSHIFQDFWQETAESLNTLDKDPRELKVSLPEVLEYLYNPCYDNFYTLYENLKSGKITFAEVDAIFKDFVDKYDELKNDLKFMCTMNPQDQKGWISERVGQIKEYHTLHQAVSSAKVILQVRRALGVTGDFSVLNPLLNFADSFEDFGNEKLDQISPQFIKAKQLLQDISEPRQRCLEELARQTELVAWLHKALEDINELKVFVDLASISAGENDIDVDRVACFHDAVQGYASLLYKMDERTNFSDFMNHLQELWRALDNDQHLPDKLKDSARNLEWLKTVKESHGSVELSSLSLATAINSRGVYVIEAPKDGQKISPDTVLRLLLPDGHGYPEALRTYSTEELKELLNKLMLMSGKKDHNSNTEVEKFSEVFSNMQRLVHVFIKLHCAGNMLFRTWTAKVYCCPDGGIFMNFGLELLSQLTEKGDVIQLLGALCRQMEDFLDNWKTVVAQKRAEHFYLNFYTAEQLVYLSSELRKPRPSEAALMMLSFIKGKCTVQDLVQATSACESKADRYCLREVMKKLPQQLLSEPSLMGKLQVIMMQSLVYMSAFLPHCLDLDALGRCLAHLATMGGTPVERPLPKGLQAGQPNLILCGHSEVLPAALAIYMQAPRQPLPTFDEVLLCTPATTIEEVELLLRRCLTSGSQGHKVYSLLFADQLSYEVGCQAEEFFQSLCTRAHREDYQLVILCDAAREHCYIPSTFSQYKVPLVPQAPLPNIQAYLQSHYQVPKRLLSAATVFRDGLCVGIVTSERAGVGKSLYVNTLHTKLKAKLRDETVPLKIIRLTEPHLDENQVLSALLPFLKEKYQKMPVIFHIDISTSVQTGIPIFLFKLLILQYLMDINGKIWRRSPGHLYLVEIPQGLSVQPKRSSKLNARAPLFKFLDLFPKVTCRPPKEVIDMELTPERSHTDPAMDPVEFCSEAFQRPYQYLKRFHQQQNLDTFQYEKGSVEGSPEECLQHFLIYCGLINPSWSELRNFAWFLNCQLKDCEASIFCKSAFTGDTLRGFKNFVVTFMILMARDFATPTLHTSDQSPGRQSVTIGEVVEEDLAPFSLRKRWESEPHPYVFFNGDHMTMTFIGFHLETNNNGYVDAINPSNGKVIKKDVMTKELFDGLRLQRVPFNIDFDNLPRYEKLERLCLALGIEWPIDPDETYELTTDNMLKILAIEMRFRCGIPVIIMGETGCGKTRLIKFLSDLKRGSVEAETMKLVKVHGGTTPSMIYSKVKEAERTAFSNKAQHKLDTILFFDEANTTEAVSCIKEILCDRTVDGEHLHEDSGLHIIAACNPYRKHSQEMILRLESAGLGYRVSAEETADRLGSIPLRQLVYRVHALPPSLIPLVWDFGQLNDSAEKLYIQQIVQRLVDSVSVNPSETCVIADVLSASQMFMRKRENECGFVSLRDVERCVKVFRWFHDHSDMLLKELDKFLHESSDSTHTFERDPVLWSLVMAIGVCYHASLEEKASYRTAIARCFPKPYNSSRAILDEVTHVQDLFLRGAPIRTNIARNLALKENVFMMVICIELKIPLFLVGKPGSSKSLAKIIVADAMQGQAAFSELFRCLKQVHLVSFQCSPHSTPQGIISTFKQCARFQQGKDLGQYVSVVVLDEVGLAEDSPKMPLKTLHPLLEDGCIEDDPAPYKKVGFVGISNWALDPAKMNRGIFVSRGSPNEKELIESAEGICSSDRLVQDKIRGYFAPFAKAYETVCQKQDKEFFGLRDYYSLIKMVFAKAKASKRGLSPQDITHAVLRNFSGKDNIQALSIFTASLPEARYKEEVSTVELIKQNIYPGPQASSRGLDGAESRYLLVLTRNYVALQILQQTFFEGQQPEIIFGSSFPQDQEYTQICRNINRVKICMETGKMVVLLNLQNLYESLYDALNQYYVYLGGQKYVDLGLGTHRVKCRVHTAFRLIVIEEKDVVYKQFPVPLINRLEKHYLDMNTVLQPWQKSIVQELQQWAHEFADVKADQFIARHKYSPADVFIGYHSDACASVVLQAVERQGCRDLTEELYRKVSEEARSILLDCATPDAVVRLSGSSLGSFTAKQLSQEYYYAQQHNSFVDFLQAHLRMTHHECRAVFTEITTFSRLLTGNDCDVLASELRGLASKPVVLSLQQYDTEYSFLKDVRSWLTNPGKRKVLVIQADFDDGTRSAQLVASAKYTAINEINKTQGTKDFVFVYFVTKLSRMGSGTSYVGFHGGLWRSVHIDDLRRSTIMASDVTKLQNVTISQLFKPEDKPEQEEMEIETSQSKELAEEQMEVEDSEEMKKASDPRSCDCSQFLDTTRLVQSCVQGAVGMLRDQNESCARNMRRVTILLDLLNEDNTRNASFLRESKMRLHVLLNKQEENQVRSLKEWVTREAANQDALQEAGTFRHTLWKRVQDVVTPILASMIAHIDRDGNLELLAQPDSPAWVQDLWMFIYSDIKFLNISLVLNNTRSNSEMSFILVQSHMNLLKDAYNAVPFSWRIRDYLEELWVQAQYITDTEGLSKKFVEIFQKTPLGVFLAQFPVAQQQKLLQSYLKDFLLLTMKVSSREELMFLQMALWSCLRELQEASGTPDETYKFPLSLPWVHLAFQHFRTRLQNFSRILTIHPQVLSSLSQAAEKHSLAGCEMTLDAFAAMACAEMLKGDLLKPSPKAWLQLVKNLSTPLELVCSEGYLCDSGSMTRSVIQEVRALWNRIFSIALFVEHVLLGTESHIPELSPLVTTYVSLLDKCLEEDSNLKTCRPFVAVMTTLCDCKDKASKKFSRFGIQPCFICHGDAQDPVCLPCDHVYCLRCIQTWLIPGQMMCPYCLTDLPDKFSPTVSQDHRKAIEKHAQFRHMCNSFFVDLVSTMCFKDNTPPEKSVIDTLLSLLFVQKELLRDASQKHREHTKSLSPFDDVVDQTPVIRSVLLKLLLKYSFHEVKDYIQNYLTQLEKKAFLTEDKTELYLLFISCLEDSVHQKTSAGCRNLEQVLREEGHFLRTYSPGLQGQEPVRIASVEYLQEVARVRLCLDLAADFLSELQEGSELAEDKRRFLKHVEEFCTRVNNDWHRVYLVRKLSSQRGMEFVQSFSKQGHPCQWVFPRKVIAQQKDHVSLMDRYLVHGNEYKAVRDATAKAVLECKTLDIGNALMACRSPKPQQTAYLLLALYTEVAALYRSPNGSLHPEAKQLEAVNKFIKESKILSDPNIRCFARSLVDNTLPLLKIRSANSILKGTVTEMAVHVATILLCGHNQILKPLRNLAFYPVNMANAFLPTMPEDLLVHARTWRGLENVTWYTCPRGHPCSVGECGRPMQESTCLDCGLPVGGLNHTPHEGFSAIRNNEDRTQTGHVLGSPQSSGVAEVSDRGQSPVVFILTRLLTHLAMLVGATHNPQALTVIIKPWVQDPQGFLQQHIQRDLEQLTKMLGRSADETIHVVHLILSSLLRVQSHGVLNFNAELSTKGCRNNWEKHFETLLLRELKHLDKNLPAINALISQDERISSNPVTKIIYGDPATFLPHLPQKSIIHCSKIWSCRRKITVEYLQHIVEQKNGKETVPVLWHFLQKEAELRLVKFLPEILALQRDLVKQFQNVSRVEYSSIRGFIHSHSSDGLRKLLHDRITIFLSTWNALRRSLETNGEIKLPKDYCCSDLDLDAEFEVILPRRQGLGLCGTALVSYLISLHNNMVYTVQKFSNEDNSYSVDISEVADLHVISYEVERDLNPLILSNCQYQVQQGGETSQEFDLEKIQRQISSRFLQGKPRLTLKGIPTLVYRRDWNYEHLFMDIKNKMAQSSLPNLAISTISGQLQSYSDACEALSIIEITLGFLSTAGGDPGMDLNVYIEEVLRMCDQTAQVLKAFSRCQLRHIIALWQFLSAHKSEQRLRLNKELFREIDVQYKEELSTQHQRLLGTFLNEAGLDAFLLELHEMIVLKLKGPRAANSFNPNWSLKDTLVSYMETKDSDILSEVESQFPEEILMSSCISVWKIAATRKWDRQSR
# UniProt Q9R1E0: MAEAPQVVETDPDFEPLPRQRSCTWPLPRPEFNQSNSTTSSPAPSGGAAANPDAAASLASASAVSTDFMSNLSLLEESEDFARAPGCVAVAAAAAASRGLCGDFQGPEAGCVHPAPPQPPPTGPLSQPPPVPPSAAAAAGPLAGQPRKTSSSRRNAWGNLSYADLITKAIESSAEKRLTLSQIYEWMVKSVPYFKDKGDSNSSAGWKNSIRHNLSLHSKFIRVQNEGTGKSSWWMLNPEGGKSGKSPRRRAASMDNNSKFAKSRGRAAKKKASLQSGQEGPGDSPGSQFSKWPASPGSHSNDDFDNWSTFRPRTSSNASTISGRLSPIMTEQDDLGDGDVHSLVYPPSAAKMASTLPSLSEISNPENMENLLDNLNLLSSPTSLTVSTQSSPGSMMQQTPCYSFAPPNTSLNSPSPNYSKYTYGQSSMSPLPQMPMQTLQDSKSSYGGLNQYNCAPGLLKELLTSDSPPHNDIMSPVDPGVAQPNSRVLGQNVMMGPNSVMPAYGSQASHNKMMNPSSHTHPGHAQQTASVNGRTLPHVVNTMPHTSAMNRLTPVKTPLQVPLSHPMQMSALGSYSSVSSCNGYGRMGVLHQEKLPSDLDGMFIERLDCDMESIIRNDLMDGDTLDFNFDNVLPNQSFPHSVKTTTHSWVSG
# Results are given in words; binding and its absence hold for the method and conditions named. In cells and extracts the contact can be indirect. Some results given as binding are weak or reduced against the parent protein; the word gives no strength.
# Experiments:
# [1] = target: Flag-tagged RNF213 (RING finger protein 213), transgene overexpressed in Treg cells of Rnf213^Tg Foxp3^Cre mice (UniProt E9Q555); assay: co-IP; lysates of Treg cells isolated from WT or Rnf213^Tg mice; Nonidet P-40 lysis buffer (150 mM NaCl, 1 mM EDTA, 1% NP-40), protein G Sepharose, washes with lysis buffer containing 500 mM NaCl, immunoblot
# [2] = target: Flag-RNF213 expressed in HEK293T cells (UniProt E9Q555); assay: co-IP; HEK293T cells transfected with the indicated plasmids for 24 h; Nonidet P-40 lysis buffer, protein G Sepharose, washes with lysis buffer containing 500 mM NaCl, immunoblot
Substance,binding [1],binding [2]
"Forkhead Box Protein O1 (FOXO1), endogenous in mouse Treg cells (from UniProt Q9R1E0 1-652)",binds,–
Myc-FOXO1 expressed in HEK293T cells (from UniProt Q9R1E0 1-652),–,binds
